Values of other authors as cited in patent US20110104137A1, “ADJUNCTS AND COMPLEXES FOR IMPROVING HMG-CoA REDUCTASE INHIBITOR (STATIN) AND SELECTIVE PHOSPHODIESTERASE 5 INHIBITOR THERAPY” (ChronoRX LLC, an Alaska Limited Liability Company, priority 2009, published 2011).

Key:
apoB-100 = conditions: high-dose

For `CC(C)c1c(C(=O)Nc2ccccc2)c(-c2ccccc2)c(-c2ccc(F)cc2)n1CC[C@@H](O)C[C@@H](O)CC(=O)O` [atorvastatin], the “total plasma levels of oxidized phospholipids and immune complexes on apoB-100” value (apoB-100) is given as “reduces total plasma levels of oxidized phospholipids and immune complexes present on apoB-100”, the “effect on plasma ADMA, contradictory study” value (ADMA; contradictory study (201)) is given as “decrease in plasma ADMA” and the “effect on plasma ADMA” value (ADMA; in vivo) is given as “no effect”.
